Assay results as given in paper PMC6166131.
These are yes or no findings as the source states them, for the method shown. Some binding calls cover weakened binding; strength is not graded here. Sequences can lack the tags named with a protein.

Target: T1, ARABIDOPSIS HOMOLOG OF TRITHORAX1 (ATX1), full-length, Gal4 BD fusion (Arabidopsis thaliana) (UniProt Q9C5X4)
T1 sequence: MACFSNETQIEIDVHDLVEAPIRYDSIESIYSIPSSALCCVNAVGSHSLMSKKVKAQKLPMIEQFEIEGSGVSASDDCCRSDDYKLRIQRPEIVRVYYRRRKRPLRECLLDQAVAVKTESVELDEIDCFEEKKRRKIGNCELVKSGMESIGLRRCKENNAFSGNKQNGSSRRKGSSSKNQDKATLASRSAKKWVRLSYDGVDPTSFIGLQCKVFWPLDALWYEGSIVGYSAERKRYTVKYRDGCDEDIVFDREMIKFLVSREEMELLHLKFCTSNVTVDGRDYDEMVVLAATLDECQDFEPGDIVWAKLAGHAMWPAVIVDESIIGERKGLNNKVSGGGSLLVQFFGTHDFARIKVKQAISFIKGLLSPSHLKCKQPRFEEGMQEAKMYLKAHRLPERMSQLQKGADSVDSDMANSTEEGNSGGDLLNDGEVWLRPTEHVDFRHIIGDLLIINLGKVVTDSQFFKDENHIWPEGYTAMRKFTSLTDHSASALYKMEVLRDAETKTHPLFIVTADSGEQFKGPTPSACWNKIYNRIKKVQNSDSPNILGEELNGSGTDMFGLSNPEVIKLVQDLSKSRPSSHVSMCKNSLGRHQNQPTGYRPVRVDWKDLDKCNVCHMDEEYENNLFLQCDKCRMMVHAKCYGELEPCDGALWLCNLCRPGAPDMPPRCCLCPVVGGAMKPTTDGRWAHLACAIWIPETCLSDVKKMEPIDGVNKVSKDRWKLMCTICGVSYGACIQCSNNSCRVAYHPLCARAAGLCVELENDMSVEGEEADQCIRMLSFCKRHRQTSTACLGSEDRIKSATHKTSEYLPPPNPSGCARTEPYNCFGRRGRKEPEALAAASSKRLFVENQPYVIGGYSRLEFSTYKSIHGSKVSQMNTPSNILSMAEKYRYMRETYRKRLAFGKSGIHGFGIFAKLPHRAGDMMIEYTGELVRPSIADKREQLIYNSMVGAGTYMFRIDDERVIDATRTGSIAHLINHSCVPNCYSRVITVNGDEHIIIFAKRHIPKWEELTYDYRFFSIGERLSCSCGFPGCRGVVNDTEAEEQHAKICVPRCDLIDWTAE
Experiment: two-hybrid; BD-ATX1 (bait, pGBKT7) cotransformed with AD-SEC or AD-SEC-N (prey, pGADT7) into S. cerevisiae AH109; growth on SD/-Leu/-Trp, then screened on SD/-Leu/-Trp/-His/-Ade

binding: binds
B1: SECRET AGENT (SEC), full-length, Gal4 AD fusion (enzyme, UniProt Q9M8Y0 1-977)
chain: MISSKNGAAMISRPVFLSDRVDEVFSRKLDLSVSSSSSSSLLQQFNKTHEGDDDARLALAHQLYKGGDFKQALEHSNMVYQRNPLRTDNLLLIGAIYYQLQEYDMCIARNEEALRIQPQFAECYGNMANAWKEKGDTDRAIRYYLIAIELRPNFADAWSNLASAYMRKGRLSEATQCCQQALSLNPLLVDAHSNLGNLMKAQGLIHEAYSCYLEAVRIQPTFAIAWSNLAGLFMESGDLNRALQYYKEAVKLKPAFPDAYLNLGNVYKALGRPTEAIMCYQHALQMRPNSAMAFGNIASIYYEQGQLDLAIRHYKQALSRDPRFLEAYNNLGNALKDIGRVDEAVRCYNQCLALQPNHPQAMANLGNIYMEWNMMGPASSLFKATLAVTTGLSAPFNNLAIIYKQQGNYSDAISCYNEVLRIDPLAADALVNRGNTYKEIGRVTEAIQDYMHAINFRPTMAEAHANLASAYKDSGHVEAAITSYKQALLLRPDFPEATCNLLHTLQCVCCWEDRSKMFAEVESIIRRQINMSVLPSVQPFHAIAYPIDPILALEISRKYAAHCSIIASRFGLPPFTHPAGLPVKREGGFKRLRIGYVSSDFGNHPLSHLMGSVFGMHNRENVEVFCYALSANDNTEWRQRIQSEAEHFLDVSAMSSDAIAKIINQDKIQILINLNGYTKGARNEIFAMQPAPIQVSYMGFPGTTGATYIDYLVTDEFVSPLQYAHIYSEKLVHLPHCYFVNDYKQKNQDVLDPNSKPKRSDYGLPEDKFIFACFNQLYKMDPEIVNTWCNILKRVPNSALWLLRFPAAGEMRFRTYAAAQGVQPDQIIFTDVAMKSEHIRRSVLADVILDTPLCNGHTTGTDVLWAGVPMITLPLEKMATRVAGSLCLATGLGHGMIVNSLEEYEEKAVSLALNKPKLQALTKELRASRLTCPLFDTMRWVKNLERSYFKMWNLHCSGQQPQHFKVLENDLEFPHDR
